Laboratory results: PubChem BioAssay AID624291 (National Center for Advancing Translational Sciences (NCATS), 2012)
The campaign covered roughly 350,000 compounds. About 220 (0.063%) were called active. The shares of active, inactive and inconclusive entries below differ from those in the screen. Calls follow the shape of the dose curve; as a rule, active = well fitted activation curve with a large enough effect; inconclusive = small, poorly fitted or top-dose-only effect; inactive = no such curve, though single readings can be large or run the other way. A potency beside an inconclusive call is a rough fit, not a confirmed value.
Potency is read from the fitted curve at half-maximal effect.

Assay: qHTS for Activators of Integrin-Mediated Alleviation for Muscular Dystrophy; also: nearly all actives have a fitted effect of over 60% in size;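 as to activation: 100% = response of the positive control SU9516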
Details: alpha7betagal myoblasts, beta-gal FDG fluorescence, 48 h; activation: at 38.3 µM (top of the series)
Summary of the method: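 alpha7betagal+/- myoblasts (passage 13, 250/well) treated 48 h at 37C with compounds at 1:260 dilution of DMSO stock. Lysed, then beta-galactosidase activity read as FDG fluorescence (ex 480/em 540) after 30 min, with pre-read for autofluorescence.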
For `Cc1ccc(CN2CC(C(=O)Nc3ccc(C)c(S(=O)(=O)N4CCCCC4)c3)CC2=O)cc1` (stereo not given), the Potency was “inactive”.
With `O=C(Nc1nc2ccccc2s1)c1ccc2c(c1)OCO2` the Potency was inconclusive: 2.82 µM [activator, single point].
With `CCOC(=O)c1ccc(N2C(=O)C(C)=C(C)C2=O)cc1` the Potency was inconclusive: 2.82 µM [activator, partial curve, poor fit].
In the case of `COc1ccccc1NC(=O)CCSc1ccc(C)cc1`, the Potency is reported as inconclusive: 10 µM [activator, partial curve, poor fit].
In the case of `Nc1nc(SCC(=O)Nc2ccc(OC(F)(F)F)cc2)[nH]c(=O)c1NC(=O)c1ccc(Br)o1`, the Potency is reported as inconclusive: 5.01 µM [activator, single point].
In the case of `CCCCNC(=S)NNC(=O)C1=NN(c2cc(C)ccc2C)C(=O)CC1`, the Potency is reported as inconclusive: 6.31 µM [activator, partial curve, poor fit].
With `Cc1ccc(/C(N)=N/OC(=O)N2CCOCC2)cc1` the Potency was inconclusive: 14.1 µM [activator, single point].
For `O=C(COC(=O)/C=C/c1cccc(C(F)(F)F)c1)NC(=O)NCc1ccco1`, the Potency was “inactive”.
In the case of `CCC1CCCCN1C(=S)NC(=O)c1ccc([N+](=O)[O-])cc1` (stereo not given), the Potency is reported as “inactive”.
In the case of `Cc1ccc(C)c(C(=O)CN2C(=O)C(=O)N(C3CCCC3)C2=O)c1`, the Potency is reported as inconclusive: 10 µM [activator, partial curve, poor fit].
With `COc1cc(/C=C(\C#N)c2nc3ccc(C)cc3[nH]2)cc([N+](=O)[O-])c1O` the Potency was inconclusive: 22.4 µM [activator, single point].
In the case of `NC1=NC(c2cccc(Cl)c2)N(CCc2ccc(F)cc2)C(N)=N1` (stereo not given), the Potency is reported as inconclusive: 1.78 µM [activator, partial curve, poor fit].
With `C=CC#CC1(O)CC(C)N(C)CC1C` (stereo not given) the Potency was inconclusive: 5.01 µM [activator, single point].
In the case of `CCn1c(=O)cc(SCC(=O)N2CCC(C)CC2)c2ccccc21`, the Potency is reported as inconclusive: 31.6 µM [activator, single point].
In the case of `Nc1ncc([N+](=O)[O-])cc1S(=O)(=O)c1ccccc1`, the Potency is reported as inconclusive: 2.82 µM [activator, single point].
In the case of `Cc1cc([N+](=O)[O-])c(-c2ccc(/C=N/n3cnnc3)o2)cc1Cl`, the Potency is reported as inconclusive: 12.6 µM [activator, single point].
For `CCN1C(=O)c2cccc3c(S(=O)(=O)N(C(=O)c4ccncc4)c4ccc(OC)cc4)ccc1c23`, the Potency was “inactive”.
For `COc1cc(C(=O)NC(=S)Nc2ccc([N+](=O)[O-])cc2C)cc(OC)c1OC`, the Potency was “inactive”.
For `O=C(CCC(=O)N1CCCCCC1)NCc1ccc(F)cc1`, the Potency was inconclusive: 28.2 µM [activator, single point].
With `CCOC(=O)c1ccccc1NC(=O)Cn1c(-c2nonc2N)nc2ccccc21` the Potency was “inactive”.
With `COC(=O)CCC(=O)NNC(=O)CCCOc1ccc(Cl)cc1Cl` the Potency was inconclusive: 2.51 µM [activator, partial curve, poor fit].
In the case of `O=C(N/N=C/C1CC=CCC1)c1ccc(Cl)cc1O` (stereo not given), the Potency is reported as “inactive”.
With `CN(C)CCCN(C(=O)c1ccc(S(=O)(=O)N2CCc3ccccc3C2)cc1)c1nc2c(F)cc(F)cc2s1` the Potency was “inactive”.
In the case of `O=C(O)CCCCCNCc1c(Cl)cccc1Cl`, the Potency is reported as inconclusive: 25.1 µM [activator, single point].
In the case of `COc1ccc(CCNC(=O)[C@@H]2C[C@H]2c2ccccc2)cc1OC`, the Potency is reported as inconclusive: 28.2 µM [activator, single point].
For `Cc1cc(OCc2cc(C(=O)N(C)C3CCOCC3)no2)cc(C)c1Cl`, the Potency was inconclusive: 3.55 µM [activator, partial curve, poor fit].
With `O=C(CCC(=O)Nc1ccc(Br)cc1)N/N=C/c1cc([N+](=O)[O-])ccc1O` the Potency was inconclusive: 3.98 µM [activator, partial curve, poor fit].
For `CC1CC(C)CN(c2oc(-c3ccccc3F)nc2C#N)C1` (stereo not given), the Potency was “inactive”.
In the case of `CCNCC(=O)N1c2ccccc2CCc2ccc(NC(=O)OC(C)C)cc21`, the Potency is reported as inconclusive: 3.55 µM [activator, partial curve, poor fit].
With `Cc1c(NC(=O)NC2CCCCC2)cccc1[N+](=O)[O-]` the Potency was inconclusive: 3.16 µM [activator, single point].
With `CCN(C(=O)COC(=O)c1cc(=O)[nH]c2ccccc12)c1c(N)n(Cc2ccccc2)c(=O)[nH]c1=O` the Potency was inconclusive: 2.24 µM [activator, full curve, poor fit].
With `O=C(Nc1nccs1)c1ccc(S(=O)(=O)N2CCOCC2)cc1` the activation was inconclusive: -56.7% [activator].
For `CC(=O)NC1C(Oc2ccccc2C)OC(CO)C(O)C1O` (stereo not given), the Potency was inconclusive: 5.62 µM [activator, partial curve, poor fit].
In the case of `O=C(c1ccccc1F)N1C(=O)c2cccc3cccc1c23`, the Potency is reported as inconclusive: 5.01 µM [activator, partial curve, poor fit].
With `CCOC(=O)C1=C(C)N=c2s/c(=C/c3ccc(OCC(=O)O)cc3)c(=O)n2C1c1ccc(OC)cc1OC` (stereo not given) the Potency was inconclusive: 28.2 µM [activator, single point].
For `COCCNC(=O)COc1cccc2c1OC(C)(C)C2`, the Potency was inconclusive: 3.55 µM [activator, single point].
For `COc1ccc(NC(=O)COc2ccc(-n3cnnn3)cc2)cc1OC`, the Potency was inconclusive: 5.01 µM [activator, single point].
For `CC(C)(C)c1ccc(NC(=O)N2CCCN(c3ccc([N+](=O)[O-])cn3)CC2)cc1`, the Potency was “inactive”.
For `COc1ccccc1C(=O)COC(=O)c1cc(=O)[nH]c2ccccc12`, the Potency was inconclusive: 5.01 µM [activator, single point].
In the case of `CCOc1ccc(NC(=O)CN(C)Cc2ccc3c(c2)OCO3)cc1S(=O)(=O)N1CCCC1`, the Potency is reported as “inactive”.
In the case of `CN(C)CCN(C(=O)c1ccc2ccccc2c1)c1nc2c(F)cccc2s1`, the Potency is reported as inconclusive: 2.51 µM [activator, single point].
With `CCn1c(COc2c(C)cccc2C)nnc1SCc1nc2ccccc2c(=O)[nH]1` the Potency was inconclusive: 5.01 µM [activator, single point].
In the case of `O=C(Cc1ccccc1)c1ccc2c(c1)OCCO2`, the Potency is reported as inconclusive: 12.6 µM [activator, single point].
For `COc1ccc(-c2cc3nc(-c4ccccc4)cc(N4CCN(C(=O)c5ccsc5)CC4)n3n2)cc1`, the Potency was inconclusive: 31.6 µM [activator, single point].
In the case of `Clc1nc(-c2ccccc2)ncc1Oc1ccccc1`, the Potency is reported as inconclusive: 3.98 µM [activator, single point].
For `Cc1ccc(Nc2nc(N)c3ccccc3n2)cc1C`, the Potency was inconclusive: 0.447 µM [activator, partial curve, poor fit].
For `Cc1ccc(Sc2cc(C)nc(-c3ccccn3)n2)cc1`, the Potency was “inactive”.
In the case of `CC(Oc1ccccc1)C(=O)N=C1SC2CS(=O)(=O)CC2N1CCc1ccccc1` (stereo not given), the Potency is reported as inconclusive: 5.62 µM [activator, partial curve, poor fit].
With `COc1cccc(OC)c1C(=O)Nc1ccnn1C` the Potency was inconclusive: 2.82 µM [activator, single point].
With `CCN(CC)CCNC1=NCCn2c1cc1cc(OC)ccc12` the Potency was “inactive”.
For `COc1ccccc1NC(=O)N1CCCC1`, the Potency was inconclusive: 0.316 µM [activator, full curve, poor fit].
For `CS(=O)(=O)N1CCC(C(=O)NCc2ccc(Cl)cc2)CC1`, the Potency was inconclusive: 3.16 µM [activator, single point].
With `COc1ccc2oc(C(=O)N(C)CCOc3ccc(Cl)cc3)c(C)c2c1` the Potency was inconclusive: 2.24 µM [activator, partial curve, poor fit].
For `CCOC(=O)/C(=C/c1c(C)n(C)c2ccc([N+](=O)[O-])cc12)C(C)=O`, the Potency was “inactive”.
For `CCc1cccc(NS(=O)(=O)c2ccc3c(c2)n(C)c(=O)n3C)c1`, the Potency was inconclusive: 5.01 µM [activator, single point].
With `Cc1ccc(C2=NN(C(=O)CCCC(=O)O)C(c3ccc4c(c3)OCO4)C2)cc1` (stereo not given) the Potency was inconclusive: 5.01 µM [activator, single point].
In the case of `COc1ccc(N(CC(=O)N2CCN(Cc3ccccc3)CC2)S(C)(=O)=O)cc1`, the Potency is reported as inconclusive: 3.98 µM [activator, full curve, poor fit].
For `Cn1c(C(=O)NC2CC2)cc(=O)n(C)c1=O`, the Potency was inconclusive: 31.6 µM [activator, single point].
With `CCOc1ccc(CN2CCCC(N3CCN(c4ccc(OC)cc4)CC3)C2)cc1` (stereo not given) the Potency was inconclusive: 7.94 µM [activator, single point].
In the case of `COc1ccccc1Nc1ccc2c(O)cc(S(=O)(=O)O)cc2c1`, the Potency is reported as inconclusive: 2.51 µM [activator, partial curve, poor fit].
For `O=C(Nc1ccc(Cl)cc1)C1=Cc2cc(Cl)ccc2OC1`, the Potency was inconclusive: 3.55 µM [activator, single point].
With `O=C(Nc1ccc(OC(F)F)cc1)c1cc(S(=O)(=O)N2CCOCC2)ccc1N1CCCC1` the Potency was inconclusive: 28.2 µM [activator, single point].
For `CSc1ccccc1NC(=O)COC(=O)c1c[nH]c(=O)[nH]c1=O`, the Potency was inconclusive: 0.447 µM [activator, full curve, poor fit].
For `CCc1nnc(N/N=C/c2ccc(-c3ccc([N+](=O)[O-])cc3)o2)n1N`, the Potency was “inactive”.
With `COc1ccc(NC(=O)N(C)C[C@H]2OCc3cnnn3CCCC(=O)N([C@@H](C)CO)C[C@H]2C)cc1` the Potency was “inactive”.
